Results as given in publication PMC5302884.
Changes are numbered by the printed parent chain. Names may count otherwise. These are yes or no findings as the source states them, for the method shown. For some of these results: In cells and extracts the contact can be indirect. Some results given as binding are weak or reduced against the parent protein; the word gives no strength. Blank lines part the entries; values can stand above or below the binder they belong to.

Experiments:
Bak L19C (human) [1] = target: Bak L19C (human) (UniProt Q16611); assay: cross-linking + native gel or EMSA; membrane fractions incubated with tBid, CuPhe on ice, then solubilised in 1% digitonin and run on blue native PAGE; 4x and greater complexes mean linkage between dimers (dimers to higher order complexes)
Bak L19C (human) [2] = target: Bak L19C (human) (UniProt Q16611); assay: cross-linking; membrane fractions treated with tBid, then 1% digitonin added before CuPhe; non-reducing SDS-PAGE; linkage within dimers
Bak L19C (human) [3] = target: Bak L19C (human) (UniProt Q16611); assay: cross-linking; membrane fractions incubated with tBid (100 nM, 30 min, 30°C), pre-chilled, CuPhe on ice 15 min; non-reducing SDS-PAGE, immunoblot for Bak; 2x complexes
[4] = target: Bak Cys null (BakΔCys, C14S/C166S) (human) (UniProt Q16611); assay: native gel or EMSA; membrane fractions incubated with tBid, no disulphide bond formed (no cysteine or no CuPhe); 1% digitonin, blue native PAGE
Bak H145C (human) = Bak H145C (human) (UniProt Q16611); assay: cross-linking + native gel or EMSA; membrane fractions incubated with tBid, CuPhe on ice, then solubilised in 1% digitonin and run on blue native PAGE; 4x and greater complexes mean linkage between dimers (dimers to higher order complexes)
Bak H164C (human) [5] = target: Bak H164C (human) (UniProt Q16611); assay: as above
Bak H164C (human) [6] = target: Bak H164C (human) (UniProt Q16611); assay: cross-linking; membrane fractions incubated with tBid, then CuPhe for 15 min at 30°C instead of 0°C; non-reducing SDS-PAGE and blue native PAGE
Bak H164C (human) [7] = target: Bak H164C (human) (UniProt Q16611); assay: cross-linking; membrane fractions treated with tBid^M97A, then with or without recombinant Bax, Bcl-xL or Mcl-1ΔN151ΔC23, then CuPhe; non-reducing SDS-PAGE
Bak H164C (human) [8] = target: Bak H164C (human) (UniProt Q16611); assay: cross-linking; membrane fractions incubated with tBid (100 nM, 30 min, 30°C), pre-chilled, CuPhe on ice 15 min; non-reducing SDS-PAGE, immunoblot for Bak; 2x complexes
Bak L199C (human) = Bak L199C (human) (UniProt Q16611); assay: cross-linking; membrane fractions incubated with tBid, then CuPhe for 15 min at 30°C instead of 0°C; non-reducing SDS-PAGE and blue native PAGE
Bak V61C (human) [9] = target: Bak V61C (human) (UniProt Q16611); assay: cross-linking + native gel or EMSA; membrane fractions heated to 43°C for 30 min instead of tBid, then CuPhe; blue native PAGE and non-reducing SDS-PAGE
Bak V61C (human) [10] = target: Bak V61C (human) (UniProt Q16611); assay: cross-linking; membrane fractions treated with tBid^M97A, then with or without recombinant Bax, Bcl-xL or Mcl-1ΔN151ΔC23, then CuPhe; non-reducing SDS-PAGE
Bak V61C (human) [11] = target: Bak V61C (human) (UniProt Q16611); assay: cross-linking; membrane fractions incubated with tBid (100 nM, 30 min, 30°C), pre-chilled, CuPhe on ice 15 min; non-reducing SDS-PAGE, immunoblot for Bak; 2x complexes

B2: Bak Cys null (BakΔCys, C14S/C166S) (protein, UniProt Q16611 1-211)
chain: MASGQGPGPPRQESGEPALPSASEEQVAQDTEEVFRSYVFYRHQQEQEAEGVAAPADPEMVTLPLQPSSTMGQVGRQLAIIGDDINRRYDSEFQTMLQHLQPTAENAYEYFTKIATSLFESGINWGRVVALLGFGYRLALHVYQHGLTGFLGQVTRFVVDFMLHHSIARWIAQRGGWVAALNLGNGPILNVLVVLGVVLLGQFVVRRFFKS
binding [4]: binds

B3: Bak H145C (protein, UniProt Q16611 1-211)
chain: B2 chain with H145C
binding (Bak H145C (human)): binds

B5: Bak L199C (protein, UniProt Q16611 1-211)
chain: B2 chain with L199C
binding (Bak L199C (human)): binds

B6: Bak V61C (protein, UniProt Q16611 1-211)
chain: B2 chain with V61C
binding (Bak V61C (human) [9]): binds
binding (Bak V61C (human) [10]): binds
binding (Bak V61C (human) [11]): binds

More lines, now with the values ahead:

binding (Bak L19C (human) [1]): binds
binding (Bak L19C (human) [2]): binds
binding (Bak L19C (human) [3]): binds
B1: Bak L19C (protein, UniProt Q16611 1-211)
chain: B2 chain with L19C

binding (Bak H164C (human) [5]): binds
binding (Bak H164C (human) [6]): binds
binding (Bak H164C (human) [7]): binds
binding (Bak H164C (human) [8]): binds
B4: Bak H164C (protein, UniProt Q16611 1-211)
chain: B2 chain with H164C
